Experimental findings from PubChem BioAssay AID2685 (National Center for Advancing Translational Sciences (NCATS), 2010) are described below.

Molecules are shown by their SMILES. Some of the results follow. The main result of the screen is listed elsewhere. These columns were measured beside it and carry no call. Compounds called inactive in the main read-out are mostly missing here. Potencies come from curve fits of mixed quality, noted in brackets.

As a reminder, the AC50 is the midpoint of the concentration-response curve, whichever way the signal moves.

This assay in a line: qHTS Assay for Lipid Storage Modulators in Drosophila S3 Cells.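 As to cell number change: cells counted by Cell Tracker Red CMTPX staining in the red channel.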 The settings on record: BODIPY lipid droplet fluorescence, 18-24 h; for cell number change: measured here: cell count max response, cells fed with added oleic acid. The text has this: NIH Molecular Libraries Probe Production Centers Network [MLPCN] NIH Chemical Genomics Center [NCGC] MLPCN Grant: 1 R03 MH085686-01 Assay Submitter (PI): Beller, Mathias; Max-Planck-Institut fur Biophysikalische Chemie NCGC Assay Overview: Storing lipids as a reservoir for energy or the anabolism of elementary metabolites is a common feature of probably all cells and is conserved from bacteria to humans. The universal cellular lipid storage organelle is the so-called lipid storage droplet (LD). Although ubiquitous, LDs share a simple structure composed of a hydrophobic core that harbors the storage lipids, which is shielded by a droplet-specific phospholipid monolayer to which proteins are attached. The current model of LD biogenesis involves an incorporation of the lipid core into the membrane leaflets of the endoplasmic reticulum (ER) followed by a subsequent budding-like maturation of a LD, which ultimately pinches off. Once released, LD volume can increase by localized lipogenesis or fusion of existing droplet. Storage lipids are re-mobilized enzymatically by lipase activity. Lipase regulation in the adipocyte is heavily studied and involves multiple components including catecholamine signaling, the LD-associated proteins Perilipin and comparative gene identification (CGI-58) and at least two lipases named hormone sensitive lipase (HSL) and adipocyte triglyceride lipase (ATGL). LD regulation outside of the adipocyte is poorly understood and only few components are known. However, there is an urgent need to learn more about ectopic fat depots as mislocalized storage of lipids, for example in the liver or muscle, is an eminent health problem associated with insulin resistance or the metabolic syndrome. We developed a laser-scanning cytometer assay to enable 1,536-well screening and combined the results of the small molecules screen with an RNAi database based on lipid storage.
Triacsin C (Sigma-Aldrich T-4540), an inhibitor of long-chain fatty acyl CoA synthetase that blocks synthesis of triglycerides, was used as a positive control for lipid under-storage. A total of 23 nL of compound solution of different concentrations were transferred to the assay plates using a Kalypsys pin tool equipped with a 1,536-pin array containing 10-nL slotted pins (FP1S10, 0.457-mm diameter, 50.8 mm long; V&P Scientific). One microliter of oleic acid (400 uM) was added, and the plate was lidded with stainless steel rubber gasket lined lids containing pinholes. […] Fluorescence was detected by excitation of the fluorophores with a 488-nm laser on an Acumen Explorer (TTP Lab Tech). The total intensity in channel 2 (500-530 nm) reflected lipid droplet accumulation. Cells were detected using channel 3 (575-640 nm) with 5-um width and 100-um depth filters. The ratio of the number of objects in PMT channel 2 over the number of objects in PMT channel 3 was also calculated. Percent activity was computed relative to an internal control (100% inhibited lipid droplet deposition due to the presence of 20 uM Triacsin C), which was added to 32 wells/plate.
(In qHTS, concentration-response curves come from the screen itself.)

The mark [1] stands for this setting: measured here: cell number channel AC50, cells fed with added oleic acid.
[2] abbreviates: measured here: lipid fluorescence (Fed channel) AC50, cells fed with added oleic acid.

Consider `CC(=NCc1ccco1)c1c(O)n(-c2ccccc2)c(=O)[nH]c1=O`, for which the cell number change was -8.42%.
As to `O=C(Cc1ccc(Cl)c(Cl)c1)NCC1(N2CCOCC2)CCCCC1`, the AC50 under setting [1] was 0.0058 µM [rising, full curve, poor fit].
Consider `CC(=O)c1c(C)n(CCCOC(C)C)c2ccc(O)cc12`, for which the cell number change is -3.88%. Further, the concentration at half-maximal activity (AC50) under setting [2] was 2.59 µM [rising, single point].
Regarding `Nc1ccccc1-[n+]1c(-c2ccccc2)cc(-c2ccccc2)cc1-c1ccccc1`, the cell number change is -50%. In addition, under setting [1], the half-maximal activity concentration (AC50) was 29.1 µM [falling, single point]. Moreover, the half-maximal activity concentration (AC50) under setting [2] was 29.1 µM [falling, single point].
On to `CCOC(=O)c1c(C)c(P(=S)(N2CCOCC2)N2CCOCC2)n(C)c1C`, for which the cell number change turned out to be 11.8%.
Consider `Cc1ccccc1N1C(=O)NC(=O)/C(=C\c2cnn(-c3ccccc3)c2)C1=O`, for which the cell number change was -35.9%. The AC50 under setting [1] is 25.9 µM [falling, partial curve, poor fit]. In addition, the AC50 under setting [2] was 20.6 µM [falling, partial curve].
For the molecule `Cc1ccc(S(=O)(=O)N2CCCCC2)cc1NC(=O)CN1CC=C(c2ccccc2)CC1`, the cell number change is -14.2%. Moreover, the AC50 under setting [2] was 0.651 µM [falling, single point].
As for `COC(=O)N(c1ccccc1)P(=O)(Oc1ccccc1)Oc1ccccc1`, the cell number change is 1.8%. Further, under setting [1], the AC50 was 6.51 µM [rising, single point].
Consider `COc1ccc(/C=C2/C(=O)NC(=O)N(c3ccccc3)C2=O)cc1CN1C(=O)c2ccccc2C1=O`, for which the cell number change is 5.68%. In addition, the half-maximal activity concentration (AC50) under setting [2] was 10.3 µM [rising, partial curve].
For `COC(=O)C1=C(c2cccc(OCc3ccccc3)c2)C[C@@H]2CC[C@H]1N2C(=O)NCc1cccc(OC)c1`, the cell number change amounted to 15.4%. The AC50 under setting [1] was 1.16 µM [falling, single point]. Moreover, the half-maximal activity concentration (AC50) under setting [2] is 1.03 µM [falling, single point].
For `Clc1ccc(C(c2ccccc2)c2ncc[nH]2)cc1` (configuration not stated), the cell number change was found to be 7.49%. Moreover, the AC50 under setting [2] was 29.1 µM [rising, single point].
As for `CCCCN1C(=O)NC(=O)C2(Cc3ccccc3N3CCOCC32)C1=O` (configuration not stated), the cell number change is -10.2%. The AC50 under setting [2] was 0.0259 µM [falling, full curve, poor fit].
`Cc1ccc(OP(=O)(NCc2ccccc2)Oc2ccc(C)cc2)cc1`: the cell number change was found to be 28.9%. Further, the AC50 under setting [2] was 2.06 µM [rising, single point].
For `CC(C)CCCn1c(O)c(/C=C2/C=CC=N2)c(=O)[nH]c1=O`, the cell number change worked out at 2.51%.
For `COP(=S)(OC)c1c(C)nn(CCC#N)c1NC(=O)c1ccc(Cl)cc1`, the cell number change was 4.78%. Besides, under setting [2], the AC50 was 20.6 µM [rising, partial curve].
In the case of `Cc1ccc(N2C(=O)NC(=O)/C(=C\C=C\c3ccco3)C2=O)cc1C`, the cell number change was -47%. The concentration at half-maximal activity (AC50) under setting [1] was 11.6 µM [falling, partial curve]. In addition, the AC50 under setting [2] is 3.26 µM [falling, full curve].
For the molecule `O=C1NC(=S)NC(=O)C1=Cc1cccc2cc3ccccc3cc12`, the cell number change was -50.6%. For the same molecule, the AC50 under setting [1] was 1.46 µM [falling, partial curve]. In addition, under setting [2], the concentration at half-maximal activity (AC50) is 1.46 µM [falling, partial curve].
On to `Nc1nnc(CCN2CCCCC2)s1`, for which the cell number change is -12.3%. Further, the AC50 under setting [2] was 5.17 µM [falling, partial curve, poor fit].
As to `O=C(CCn1c(=O)oc2ccccc21)NCCCN1CCCC1=O`, under setting [2], the AC50 is 5.8 µM [falling, full curve].
With `Cc1ccc(CN2C(=O)NC(=O)C3(Cc4c(nc5ccccn5c4=O)N4CCCCCC43)C2=O)cc1` (configuration not stated), the cell number change was -58.7%. Besides, the AC50 under setting [1] was 18.4 µM [falling, single point]. In addition, the concentration at half-maximal activity (AC50) under setting [2] was 1.64 µM [rising, partial curve].
Consider `c1cncc(C2CCCCN2)c1` (configuration not stated), for which the cell number change turned out to be 22.2%. For the same molecule, the AC50 under setting [2] is 7.31 µM [rising, full curve, poor fit].
With `CCOC(C[n+]1c(-c2ccccc2)cc(C)cc1-c1ccccc1)OCC`, the cell number change came out at 10.2%. Under setting [2], the AC50 was 0.291 µM [falling, partial curve].
As to `O=C(COc1ccc2ccccc2c1)N1CCN(CC2CC3C=CC2C3)CC1` (configuration not stated), the cell number change amounted to 3.36%. For the same molecule, the half-maximal activity concentration (AC50) under setting [2] is 18.4 µM [rising, single point].
For `CCC(=NCCOc1ccc(Cl)cc1)c1c(O)n(C)c(=O)n(C)c1=O`, the AC50 under setting [2] was 0.58 µM [rising, single point].
Consider `Cc1cccc(C(=O)NC(Oc2ccccc2)C(Cl)(Cl)Cl)c1` (configuration not stated), for which the cell number change is -5.92%. Besides, the concentration at half-maximal activity (AC50) under setting [2] is 0.116 µM [falling, full curve, poor fit].
For the molecule `COC(=O)CCCCC1SCC(NC(=O)c2ccccc2)C1Cl` (configuration not stated), the cell number change is -18.3%. Further, under setting [2], the AC50 was 0.092 µM [falling, full curve, poor fit].
Regarding `Cc1cc(C)c(C2=NOC(O)(C(F)(F)F)C2)c(=O)[nH]1` (configuration not stated), the cell number change was found to be 19.7%. For the same molecule, the AC50 under setting [2] was 8.2 µM [rising, partial curve, poor fit].
As to `Cc1cc(C)cc(N2C(=O)NC(=O)/C(=C\c3cccn3-c3ccccc3)C2=O)c1`, the cell number change was -43.1%. Moreover, under setting [1], the AC50 is 14.6 µM [falling, partial curve, poor fit]. Also, under setting [2], the concentration at half-maximal activity (AC50) is 7.31 µM [falling, partial curve].
